Earlier results, collected in PMC10349193 (CPT: Pharmacometrics & Systems Pharmacology, 2023).

Experiments:
Caco-2 = conditions: pH 7.4: pH 7.4, Passive&Active; erythromycin file with reference compounds; ref SimCYP library version 19; cited from earlier work
MDCK II = conditions: fluvoxamine file with reference compounds; ref SimCYP library version 19; cited from earlier work

CC(C)NCC(O)COc1ccc(CC(N)=O)cc1 (centres unmarked) [Atenolol]
Caco-2 Papp (Caco-2): 1.91 10^-6 cm/s
MDCK II Papp (MDCK II): 0.26 10^-6 cm/s
